This is one part of the list. The main result of the screen is listed elsewhere. These columns were measured beside it and carry no call. Compounds called inactive in the main read-out are mostly missing here. Words in brackets tell the shape of the fitted curve; partial curves, single points and poor fits give uncertain potencies.

The test in a line: qHTS Assay to Find Inhibitors of Chronic Active B-Cell Receptor Signaling. Particulars: ABC-DLBCL IkBa-CBG/CBR reporter, luminescence ratio (green luciferase fused to IkBa over red control in TMD8 lymphoma cells), 4 h. The procedure, abridged: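 TMD8 human ABC-DLBCL cells with doxycycline-inducible IκBα–green luciferase fusion and unfused red luciferase, in 0.5% FBS medium; compounds up to 46 uM, 4 h at 37C. Green/red luminescence ratio, filter-overlap corrected, fitted to concentration-response curves.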

The mark [1] stands for this setting: measured here: CBR red luminescence, cell number.
The mark [2] stands for this setting: measured here: IkBa-CBG green luminescence.

For the compound `COCCN1CN(S(=O)(=O)c2cccc(Cl)c2)c2nc3ccccc3nc21`, the AC50 (usually the midpoint of the concentration-response curve, whichever way the signal moves) under setting [1] was 2.82 µM [falling, full curve].
For `O=C(NNC(=O)c1ccc2ncccc2c1)c1ccc(Cl)cc1`, the AC50 under setting [1] was 35.5 µM [falling, single point].
The same measure, in the same setting: with `FC(F)(F)c1cc(-c2ccco2)nc(NCCc2ccccc2)n1` the figure was 2.51 µM [rising, single point]; with `C#CCOc1ccccc1C(N)=O`, 6.31 µM [falling, partial curve, poor fit].
With `c1ccc2cc(OCc3nc4ccccc4[nH]3)ccc2c1`, the AC50 under setting [1] was 2.59 µM [falling, full curve].
Same read-out and setting: with `O=C(c1ccco1)N1CCN(c2c(-c3ccccc3)c3cc(Cl)ccc3[nH]c2=O)CC1` the figure was 18.4 µM [falling, single point]; with `Cc1c(Cl)cccc1NC(=O)CCCN1C(=O)CCC1=O`, 29.1 µM [rising, single point]; with `C=C(C)c1cccc(C(C)(C)NC(=O)Nc2ccc(C)cn2)c1`, 32.6 µM [falling, single point].
On the same count and under the same terms, with `C/C(=N\NC(=S)NCCc1ccccc1)c1cccs1` the figure was 2.06 µM [rising, full curve, poor fit]; with `O=C(Oc1cc(=O)oc2ccccc12)c1ccco1`, 1.12 µM [falling, full curve, poor fit]; with `CC(C)Cc1nnc(NC(=O)CN2C(=O)C3CCCCC3C2=O)s1` (centres undefined), 32.6 µM [rising, single point].
For the compound `COc1cccc(-c2cc(C(=O)NCc3ccco3)no2)c1`, the AC50 under setting [1] is 14.6 µM [falling, partial curve, poor fit].
In the case of `O=C(CCCN1CCOCC1)c1ccc2c(c1)OCCO2`, under setting [1], the AC50 was 1.41 µM [rising, partial curve, poor fit].
The same measure, in the same setting: with `Cc1ccc(C2C3=C(CC(C)(C)CC3=O)Nc3onc(C)c32)cc1` (centres undefined) the figure was 32.6 µM [falling, single point].
On the same count and under the same terms, as for `Cc1cc(NC(=O)CSc2ccccn2)cc(NC(=O)CSc2ccccn2)c1`, the figure is 25.1 µM [rising, single point]; as for `COCCSc1ccccc1C(=O)NCc1cccnc1`, 6.31 µM [falling, single point].
As for `CCOC(=O)c1ccc(Oc2nc(NC)nc(SC)n2)cc1`, the AC50 under setting [1] was 6.51 µM [rising, single point].
With `C=CC[n+]1c(/C=C/c2ccc(OC(C)=O)c(OC)c2)ccc2ccccc21`, under setting [1], the AC50 is 28.2 µM [falling, single point].
The same measure, in the same setting: with `COc1ccc(C(=O)Nc2ccc(NC(=O)c3cccc(OC)c3)cn2)cc1` the figure was 22.4 µM [rising, single point].
In the case of `O=[N+]([O-])c1cc(C(F)(F)F)cc([N+](=O)[O-])c1Sc1n[nH]c(C(F)(F)F)n1`, the AC50 is 22.4 µM [falling, partial curve, poor fit] under setting [1] and 7.08 µM [rising, full curve, poor fit] under setting [2].
For `O=C1CCC/C1=C/Nc1ccc(Cl)cc1`, the concentration at half-maximal activity (AC50) under setting [1] was 12.6 µM [rising, partial curve, poor fit].
Regarding `N#C/C(=C(/O)COC(=O)c1ccccc1O)c1nc2ccccc2s1`, the AC50 under setting [1] is 14.1 µM [falling, single point].
With `COc1ccc(C(=O)NC2CCN(C(=S)Nc3ccc(C)c(C)c3)CC2)cc1`, the AC50 under setting [1] was 16.4 µM [rising, single point].
Take `COc1ccc(N=Cc2nc(-c3ccccc3)oc2OC(=O)c2ccccc2)cc1`: under setting [1], the AC50 is 13 µM [falling, partial curve].
Take `O=C(/C=C/c1ccco1)NC(=S)Nc1cccc(-c2nc3ccccc3o2)c1`: the AC50 is, setting by setting: under setting [1], 31.6 µM [rising, single point]; under setting [2], 12.6 µM [falling, partial curve].
Take `CCCCC(=O)N=c1sc2cc([N+](=O)[O-])ccc2n1C`: the AC50 under setting [1] is 11.2 µM [rising, partial curve, poor fit].
Consider `Cc1ccccc1OCC(=O)N/N=C/c1ccccn1`, for which the half-maximal activity concentration (AC50) under setting [1] was 35.5 µM [falling, single point].
Take `O=C(O)CSc1nc2c(cnn2-c2ccccc2)c(=O)n1-c1ccc(Br)cc1`: the AC50 under setting [1] is 16.4 µM [rising, partial curve, poor fit].
Consider `C=CCNC(=O)CCCOc1cc(C)ccc1C`, for which the AC50 under setting [1] is 29.1 µM [falling, single point].
Same read-out and setting: with `COC(=O)c1sc(-c2ccc(Cl)cc2)cc1NC(=O)COCC(=O)O` the figure was 14.1 µM [rising, single point].
As for `CC(C)n1c(SCC(N)=O)nc2c1c(=O)n(C)c(=O)n2C`, the AC50 under setting [1] is 17.8 µM [rising, partial curve, poor fit].
On the same count and under the same terms, as for `COc1ccc(N2CCN(C(=S)Nc3ccccc3)CC2)cc1`, the figure is 11.2 µM [rising, partial curve, poor fit]; as for `COc1cccc(-c2cc(C(=O)Nc3ccc(OC)c(OC)c3)no2)c1`, 1.78 µM [falling, full curve]; as for `Cc1ccc(NC(=O)Cc2ccc([N+](=O)[O-])cc2)c(Br)c1`, 1.16 µM [rising, partial curve, poor fit].
On the same count and under the same terms, with `O=C(O)c1cccc(Nc2nc(Nc3ccccc3)nc(N3CCCC3)n2)c1` the figure was 1.78 µM [falling, partial curve]; with `CN(C)CCCNc1ncnc2c1cnn2-c1ccccc1`, 0.651 µM [rising, full curve, poor fit]; with `CCCc1nc(SCC(=O)c2ccccc2)c2c(=O)n(C)c(=O)n(C)c2n1`, 0.82 µM [rising, full curve].
With `COc1cc(NC(=O)COc2ccccc2)c(OC)cc1NC(C)=O`, the AC50 under setting [1] is 14.1 µM [falling, single point].
As to `CC(=O)c1cccc(N/C=C\c2nnnn2-c2ccc(F)cc2)c1`, the AC50 under setting [1] was 23.1 µM [rising, partial curve, poor fit].
On to `Cc1c(/C=C/C(=O)c2cccs2)cnn1C`, for which, under setting [1], the AC50 is 29.1 µM [falling, single point].
On to `COc1ccc(C(=O)C2CCCN(Cc3ccc(C#CCCO)cc3)C2)cc1F` (centres undefined), for which the AC50 under setting [2] is 7.08 µM [rising, partial curve, poor fit].
Consider `CC(=O)c1cccc(NC(=O)CSc2nnc3ccc(-c4ccc(C)cc4)nn23)c1`, for which the AC50 under setting [1] is 35.5 µM [rising, single point].

The values are drawn from PubChem BioAssay AID493014 (National Center for Advancing Translational Sciences (NCATS), 2011).
